# Laboratory results as given in PubChem BioAssay (EPA / NIEHS).
# Sequences of proteins named here, by UniProt entry; tags and fusion partners are left off. A change or cut given only in a name is not applied to a line headed by its entry.
# UniProt P10828: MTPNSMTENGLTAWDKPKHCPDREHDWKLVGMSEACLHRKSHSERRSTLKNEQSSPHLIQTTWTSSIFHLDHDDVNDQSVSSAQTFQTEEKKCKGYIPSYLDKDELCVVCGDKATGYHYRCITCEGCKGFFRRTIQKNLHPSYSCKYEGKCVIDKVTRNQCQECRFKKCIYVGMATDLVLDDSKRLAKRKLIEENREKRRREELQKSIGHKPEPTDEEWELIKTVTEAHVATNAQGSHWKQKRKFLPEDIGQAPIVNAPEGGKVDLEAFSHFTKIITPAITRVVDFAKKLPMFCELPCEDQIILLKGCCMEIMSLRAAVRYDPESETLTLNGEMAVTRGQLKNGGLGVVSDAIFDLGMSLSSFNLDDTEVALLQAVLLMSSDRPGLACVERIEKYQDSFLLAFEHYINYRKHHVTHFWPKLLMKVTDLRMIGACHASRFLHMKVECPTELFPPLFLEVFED
# UniProt P10275: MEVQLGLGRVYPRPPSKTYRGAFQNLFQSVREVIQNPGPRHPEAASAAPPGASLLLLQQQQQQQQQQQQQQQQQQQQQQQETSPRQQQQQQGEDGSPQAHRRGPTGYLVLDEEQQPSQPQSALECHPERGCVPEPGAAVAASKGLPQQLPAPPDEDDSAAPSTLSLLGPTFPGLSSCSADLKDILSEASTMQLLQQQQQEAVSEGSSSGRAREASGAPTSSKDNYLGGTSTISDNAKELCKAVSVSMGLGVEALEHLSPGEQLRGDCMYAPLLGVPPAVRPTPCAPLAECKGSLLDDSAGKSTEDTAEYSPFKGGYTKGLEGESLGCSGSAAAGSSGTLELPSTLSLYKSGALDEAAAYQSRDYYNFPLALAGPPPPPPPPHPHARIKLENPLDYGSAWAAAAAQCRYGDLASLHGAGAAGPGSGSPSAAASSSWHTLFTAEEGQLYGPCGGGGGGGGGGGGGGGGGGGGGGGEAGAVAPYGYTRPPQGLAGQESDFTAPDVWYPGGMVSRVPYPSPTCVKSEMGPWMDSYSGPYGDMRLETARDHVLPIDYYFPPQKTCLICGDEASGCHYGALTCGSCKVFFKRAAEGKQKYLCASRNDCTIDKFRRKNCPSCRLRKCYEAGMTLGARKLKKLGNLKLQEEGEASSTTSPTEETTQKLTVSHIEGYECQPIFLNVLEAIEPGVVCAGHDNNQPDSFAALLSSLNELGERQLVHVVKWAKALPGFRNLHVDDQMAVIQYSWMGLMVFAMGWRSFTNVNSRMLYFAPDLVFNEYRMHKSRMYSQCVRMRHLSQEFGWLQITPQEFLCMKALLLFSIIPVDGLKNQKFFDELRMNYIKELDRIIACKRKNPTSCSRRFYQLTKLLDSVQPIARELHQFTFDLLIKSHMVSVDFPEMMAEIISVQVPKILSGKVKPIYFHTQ
# This list was built around the results that the source calls inconclusive (neither active nor inactive); the mix of calls is not that of the screen. For some assays here: Where the call is inconclusive, the potency comes from a doubtful curve fit. Calls of active or inactive are those of the source. The calls were made as follows: active = hit-call score of the fitted dose curve at least 0.9, where 1 is the maximum; inconclusive = response in the unintended direction; inactive = score below 0.9.
# Legend:
# THRB (gene 7068) [1] = molecular target: THRB (gene 7068) (UniProt P10828); test: TOX21_TRB_BLA_Antagonist_Followup_ratio: Tox21 Thyroid Hormone Receptor beta Antagonism Beta-lactamase (BLA) Follow-Up Assay, Ratio (AID 2283958)
# How it was run: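 Beta-lactamase reporter ratio (460/530 nm, CCF4-AM substrate, 2 h room temperature) was read in TRb-bla HEK293T cells after 18 h compound treatment (11 concentrations, triplicate) at 37C in 2% charcoal-stripped FBS medium. Loss of signal fitted against DMSO.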
# [2] = TOX21_TRB_BLA_Antagonist_Followup_viability: Viability Assessment in the Tox21 Thyroid Hormone Receptor beta Antagonism Beta-lactamase (BLA) Follow-Up Assay (AID 2283961)
# How it was run: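 ATP-based CellTiter-Glo luminescence (30 min, room temperature) run in the same wells as the TRβ-bla readout. Cells: GeneBLAzer HEK293T expressing GAL4-TRβ LBD, exposed 18 h at 37C to compounds at 11 concentrations in triplicate, stripped-serum medium.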
# THRB (gene 7068) [3] = molecular target: THRB (gene 7068) (UniProt P10828); test: TOX21_TRB_COA_Antagonist_Followup_ratio: Tox21 Thyroid Hormone Receptor beta Antagonism through Coactivator Recruitment Follow-Up Assay, Ratio (AID 2283967)
# How it was run: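 GST-TRb LBD 5.0 nM + 0.10% BSA, compound added; fluorescein-SRC-2 peptide 200 nM, Tb-anti-GST Ab 2 nM. TR-FRET, ex 340 / em 520:495 ratio. Norm: DMSO 0%, T3 100%.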
# [4] = molecular target: Nucleoli Translocation, AR (gene 367) (UniProt P10275); test: UPITT_HCI_U2OS_AR_TIF2_Nucleoli_Antagonist: University of Pittsburgh U2OS Androgen Receptor-Transcriptional Intermediary Factor 2 (AR-TIF2) Antagonism High Content Imaging Assay for Nucleoli Translocation (AID 2283997)
# How it was run: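 Compounds are added at 20 uM final concentration in 0.2% DMSO to U2OS cells carrying AR-RFP and TIF2-GFP fusions. Nucleolar AR-RFP fluorescence is then quantified by automated imaging. Antagonism is fitted positively against DHT baseline.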
# [5] = molecular target: Ratio of Nucleoli Translocation and Cytoplasm, AR (gene 367) (UniProt P10275); test: UPITT_HCI_U2OS_AR_TIF2_Nucleoli_Cytoplasm_Ratio_Antagonist: University of Pittsburgh U2OS Androgen Receptor-Transcriptional Intermediary Factor 2 (AR-TIF2) Antagonism High Content Imaging Assay for Ratio of Nucleoli Translocation and Cytoplasm (AID 2283999);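 also: antagonists lower the DHT-driven ratio of nucleolar to cytoplasmic red signal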
# How it was run: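 High-content imaging of red fluorescence ratio, nucleoli versus cytoplasm, in U2OS expressing AR-RFP and TIF2-GFP, fitted relative to DHT. Compounds tested once at 20 uM final, then 0.195 to 50 uM final in serial dilution.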
# [6] = molecular target: Ratio of Nucleoli Translocation and Cytoplasm, AR (gene 367) (UniProt P10275); test: UPITT_HCI_U2OS_AR_TIF2_Nucleoli_Cytoplasm_Ratio_Agonist: University of Pittsburgh U2OS Androgen Receptor-Transcriptional Intermediary Factor 2 (AR-TIF2) Agonism High Content Imaging Assay for Ratio of Nucleoli Translocation and Cytoplasm (AID 2284000);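 also: hits raise the red nucleolar to cytoplasm ratio above vehicle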
# How it was run: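 Human osteosarcoma U2OS line, AR-RFP plus TIF2-GFP; compounds 0.195–50 uM final, 0.5% DMSO. Readout: nucleolar/cytoplasmic RFP ratio by HCI, positive direction vs DMSO baseline.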
# [7] = CCTE_Shafer_MEA_dev_active_electrodes_number: CCTE's Neural Network Formation Assay for Number of Active Electrodes, Shafer Lab (AID 2284040);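 also: potency for loss of active electrodes versus DMSO so lower counts are hits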
# How it was run: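 Counts electrodes per well firing at least 5 spikes/min, recorded on days 5, 7, 9 and 12 in rat cortical cultures dosed continuously from plating (treatment refreshed DIV 5, 9). Value is the area under the curve over recordings, fitted downward relative to DMSO.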
# [8] = CCTE_Shafer_MEA_acute_LDH: CCTE's Lactate Dehydrogenase Assay for Cytotoxicity in the Neural Acute Assay, Shafer Lab (AID 2284086);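 also: active means LDH release rises above DMSO vehicle level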
# How it was run: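 LDH released during 40 min compound exposure of primary rat cortical cultures, quantified by absorbance at 490 nm in collected medium. Fitting direction positive versus DMSO vehicle.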
# [9] = CCTE_Mundy_HCI_iCellGluta_NOG_NeuronCount: CCTE's Neurite Outgrowth Assay in iCellGluta cells for Neuron Count, Mundy Lab (AID 2284340);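 also: cells fixed about 48 h after compound addition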
# How it was run: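 Neuron count read by automated high-content imaging of Hoechst 33342 and betaIII-tubulin/Alexa Fluor-488 labelling in human iPSC glutamatergic neurons. Activity fitted relative to DMSO.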
# [10] = CCTE_Mundy_HCI_hN2_NOG_NeuriteCount: CCTE's Neurite Outgrowth Assay in human hN2 cells for Neurite Count, Mundy Lab (AID 2284219)
# How it was run: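 In this morphology assay, hNP1-derived neurons received test chemical 2 h post-plating and were fixed two days later in warm paraformaldehyde/sucrose containing Hoechst 33342. Neurites, labelled by rabbit anti-βIII-tubulin (1:800) and Alexa Fluor-488 (1:500), were counted automatically.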
# [11] = CCTE_Mundy_HCI_hN2_NOG_NeuriteLength: CCTE's Neurite Outgrowth Assay in human hN2 cells for Neurite Length, Mundy Lab (AID 2284220)
# How it was run: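 Read-out is neurite length from high-content imaging of βIII-tubulin/Alexa Fluor-488-labelled neurons, referenced to DMSO controls.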
# [12] = IUF_NPC1_cytotoxicity_72hr: Cytotoxicity Assessment at 72 hours in the Leibniz Research Institute for Environmental Medicine (IUF) Neural Progenitor Cell Proliferation Assay (NPC1) (AID 2284332);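 also: rising LDH signal means more cytotoxicity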
# How it was run: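 Cytotoxicity by LDH membrane-integrity assay on medium supernatants, fluorescence via resazurin reduction, after 3-day single exposure of primary hNPC spheres at 37C, pH 7.2-7.6 with growth factors. Fitted upward against baseline.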
smiles,measurement,setting,value
CC[n+]1ccccc1,AC50,THRB (gene 7068) [1],inconclusive: 19.2 µM
same,AC50,[2],inconclusive: 19.2 µM
same,AC50,THRB (gene 7068) [3],inconclusive: 19.2 µM
Clc1c(Cl)c(Cl)c2c(c1Cl)Oc1c(Cl)c(Cl)c(Cl)c(Cl)c1O2,AC50,[4],inconclusive: 6.62 µM
same,outcome,[5],inactive
O=c1[nH]c2c(c(=O)n1C1CCCCC1)CCC2,AC50,[5],inconclusive: 0.805 µM
COP(=S)(OC)SCC(=O)N(C)C=O,AC50,[6],inconclusive: 50 µM
C=CCN1CC[C@]23c4c5ccc(O)c4O[C@H]2C(=O)CC[C@@]3(O)[C@H]1C5,AC50,[7],inconclusive: 15 µM
CC1(C)[C@@H](C=C(Cl)Cl)[C@@H]1C(=O)O[C@@H](C#N)c1ccc(F)c(Oc2ccccc2)c1,outcome,[8],inactive
same,outcome,[9],inactive
O=C(O)CNCP(=O)(O)O,AC50,[8],inconclusive: 15 µM
C[C@H](N)Cc1ccccc1,AC50,[10],inconclusive: 50 µM
same,AC50,[11],inconclusive: 0.000375 µM
[CH3][Sn]([CH3])[CH3],AC50,[11],inconclusive: 0.0001 µM
C[n+]1ccc(-c2ccccc2)cc1,AC50,[12],inconclusive: 10 µM
CC(=O)[O-].CC(=O)[O-].O.O.O.[Pb+2],AC50,[12],inconclusive: 0.0587 µM
CCOP(=S)(OCC)SCS(=O)C(C)(C)C (configuration not stated),outcome,[9],inactive

# Two entries from above, with bars between the fields.
smiles | measurement | setting | value
CC[n+]1ccccc1 | AC50 | THRB (gene 7068) [3] | inconclusive: 19.2 µM
O=C(O)CNCP(=O)(O)O | AC50 | [8] | inconclusive: 15 µM
